Results published in article PMC9700521.
These are yes or no findings as the source states them, for the method shown. For some assays here: Binding seen in cells or lysates may run through a third protein. Some entries that bind do so weakly or less than the wild type.

Chains of the proteins cited; added tags and fusions are not shown.
UniProt Q96FW1: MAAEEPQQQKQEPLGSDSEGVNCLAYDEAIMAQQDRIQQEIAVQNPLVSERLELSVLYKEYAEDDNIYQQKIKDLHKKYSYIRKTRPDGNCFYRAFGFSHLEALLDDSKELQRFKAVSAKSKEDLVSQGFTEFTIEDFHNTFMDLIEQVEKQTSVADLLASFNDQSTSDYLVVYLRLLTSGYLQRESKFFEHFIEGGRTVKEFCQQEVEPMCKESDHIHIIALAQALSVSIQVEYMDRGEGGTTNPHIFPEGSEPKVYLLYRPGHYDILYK
UniProt P46937: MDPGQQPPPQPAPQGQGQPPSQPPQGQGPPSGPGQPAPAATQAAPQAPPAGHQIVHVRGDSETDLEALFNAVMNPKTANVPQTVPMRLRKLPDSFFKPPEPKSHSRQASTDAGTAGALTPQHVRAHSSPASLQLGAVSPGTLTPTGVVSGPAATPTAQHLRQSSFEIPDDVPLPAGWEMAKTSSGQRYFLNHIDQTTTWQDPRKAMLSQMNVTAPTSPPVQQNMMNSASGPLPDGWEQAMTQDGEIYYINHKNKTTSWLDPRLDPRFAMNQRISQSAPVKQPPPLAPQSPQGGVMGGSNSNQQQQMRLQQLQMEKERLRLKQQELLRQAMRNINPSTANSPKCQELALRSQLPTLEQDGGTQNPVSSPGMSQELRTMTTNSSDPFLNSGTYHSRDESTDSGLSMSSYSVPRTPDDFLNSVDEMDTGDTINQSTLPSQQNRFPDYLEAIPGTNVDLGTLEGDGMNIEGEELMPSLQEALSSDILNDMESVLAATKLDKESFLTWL

Tests used:
OTUB1-flag = OTUB1-flag (UniProt Q96FW1); assay: co-IP; OTUB1-flag and YAP-myc (WT or truncated) co-transfected into HEK293T cells; IP with OTUB1 (Flag), protein A/G agarose beads, western blot
GST-OTUB1 = GST-OTUB1 (UniProt Q96FW1); assay: pull-down; GST-agarose bead bound GST-OTUB1 or GST incubated with purified His-YAP; eluates analysed by western blot; both purified

YAP-myc (from UniProt P46937 1-504)
binding (OTUB1-flag): binds

His-YAP (from UniProt P46937 1-504)
binding (GST-OTUB1): binds
